Primary screen of a compound library

Sequences of proteins named here, by UniProt entry; tags and fusion partners are left off. Residues count along the entry.
UniProt P9WPC5, whole entry: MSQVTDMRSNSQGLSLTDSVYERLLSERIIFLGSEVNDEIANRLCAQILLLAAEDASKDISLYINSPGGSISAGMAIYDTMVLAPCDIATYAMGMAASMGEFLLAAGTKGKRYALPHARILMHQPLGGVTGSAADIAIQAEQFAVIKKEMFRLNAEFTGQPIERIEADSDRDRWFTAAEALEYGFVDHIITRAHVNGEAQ
UniProt P9WPC3, whole entry partner: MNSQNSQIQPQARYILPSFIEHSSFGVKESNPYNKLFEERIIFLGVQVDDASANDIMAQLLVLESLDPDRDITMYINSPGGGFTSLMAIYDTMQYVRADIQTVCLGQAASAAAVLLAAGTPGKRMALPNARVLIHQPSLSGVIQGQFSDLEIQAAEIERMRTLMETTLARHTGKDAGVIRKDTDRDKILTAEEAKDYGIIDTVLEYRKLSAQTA
UniProt Q4DA54, 1-478: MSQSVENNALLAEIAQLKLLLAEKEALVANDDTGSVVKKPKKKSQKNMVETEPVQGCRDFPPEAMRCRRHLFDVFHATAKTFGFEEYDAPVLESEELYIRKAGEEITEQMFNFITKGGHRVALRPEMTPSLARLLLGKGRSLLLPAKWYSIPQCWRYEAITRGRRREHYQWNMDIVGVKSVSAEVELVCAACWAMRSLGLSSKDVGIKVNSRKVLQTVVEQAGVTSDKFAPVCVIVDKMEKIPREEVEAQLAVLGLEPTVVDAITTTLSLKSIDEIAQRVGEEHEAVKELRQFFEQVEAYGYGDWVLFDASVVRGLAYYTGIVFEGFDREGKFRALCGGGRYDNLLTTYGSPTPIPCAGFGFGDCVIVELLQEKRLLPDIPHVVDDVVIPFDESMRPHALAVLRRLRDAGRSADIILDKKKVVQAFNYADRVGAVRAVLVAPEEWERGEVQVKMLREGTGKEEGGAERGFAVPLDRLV
UniProt P9WNZ1, whole entry: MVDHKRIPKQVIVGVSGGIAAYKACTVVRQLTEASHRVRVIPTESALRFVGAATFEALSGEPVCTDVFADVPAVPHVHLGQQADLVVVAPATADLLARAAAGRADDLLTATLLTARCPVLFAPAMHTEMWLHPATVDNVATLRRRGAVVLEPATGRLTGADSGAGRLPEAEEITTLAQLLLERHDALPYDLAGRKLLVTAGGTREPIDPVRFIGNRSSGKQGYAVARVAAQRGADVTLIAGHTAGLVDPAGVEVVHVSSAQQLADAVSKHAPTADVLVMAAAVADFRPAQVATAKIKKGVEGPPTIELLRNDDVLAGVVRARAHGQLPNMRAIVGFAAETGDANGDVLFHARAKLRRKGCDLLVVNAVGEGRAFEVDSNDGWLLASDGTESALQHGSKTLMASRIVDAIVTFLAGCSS

Results are given as percent effect. The controls that fix the scale are not given in the record; negative values are as filed. The compounds are a random part of those screened. Two or more numbers in one place are separate tests of the same structure; such repeats can differ widely. A dash means the value is not listed here; it may have been measured.

ClpP1P2: 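ClpP1P2, Mycobacterium tuberculosis (UniProt P9WPC5 and UniProt P9WPC3). Protease assay of ClpP1P2, read by the AMC dye that it sets free. Tested at 50 µM. Higher reads as stronger inhibition, judged from the few compounds that gave an IC50. Most other retested compounds had strongly negative values. About 69,000 compounds were tested under these conditions; 0.015% (about 10) showed 50% or more at least once.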
Toxoplasma: 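Assay of Toxoplasma gondii numbers, read through their beta-galactosidase reporter with a colour substrate. Tested at 10 µM. Higher reads as fewer parasites (inferred from which compounds were picked for retests). Size under these conditions: about 67,000 compounds, about 260 of them at 50% or above in at least one test.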
Leishmania in macrophages: 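Cell assay of Leishmania donovani living inside macrophages; the read-out is not stated. Compounds at 30 µM. Higher reads as stronger inhibition (inferred: compounds with an IC50 in retests scored well above the rest). Of about 69,000 compounds tested this way, about 1,000 (1.5%) reached 50% or more in at least one test.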
TcHisRS: 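Enzyme assay of histidyl-tRNA synthetase; the read-out is not stated. Target: Histidine-tRNA ligase, Trypanosoma cruzi CL Brener (UniProt Q4DA54). Compounds at 30 µM. Direction is inferred from retests: higher values go with stronger inhibition. About 69,000 compounds were tested under these conditions; 0.045% (about 31) showed 50% or more at least once.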
CoaBC: 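Coenzyme A biosynthesis protein CoaBC, Mycobacterium tuberculosis (UniProt P9WNZ1). Enzyme assay of CoaBC with a phosphate dye (Biomol Green) read at 650 nm. Compounds at 30 µM. Direction is inferred from only a few compounds that gave an IC50; most scored high, so higher reads as stronger inhibition. Most strong results did not repeat in a second test. Size under these conditions: about 67,000 compounds, about 40 of them at 50% or above in at least one test.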

structure | ClpP1P2 | Toxoplasma | Leishmania in macrophages | TcHisRS | CoaBC
CC(C)C(Sc1nccn1C1CC1)C(=O)NCc1cccnc1 (stereo not drawn) | -16.68% | -5.835% | -14.74% | 2.874% | 0.6452%
Cc1cnn(CC2CCCCN2C(=O)c2ccc3[nH]nnc3c2)c1 (stereo not drawn) | -8.861% | -9.864% | -10.21% | 3.396% | 6.154%
O=C(O)[C@]12CCCN(C3CCOC3)C[C@H]1CN(c1ncccn1)C2 (stereo partly drawn) | 6.133% | - | - | 3.315% | 4.208%
Cc1cc(C)c(C(=O)N2CCn3nc(C(=O)NCCN(C)C)cc3C2)[nH]1 | -4.086% | 2.107% | -32.08% | 2.041% | 1.091%
[H][C@@]12C[C@@H](c3noc(C)n3)O[C@]1([H])CN(Cc1scnc1C)C2 | - | 0.6414% | -10.92% | - | -
CC(Cn1ccnc1)NC(=O)C1(c2ccc(F)cc2)CC1 (stereo not drawn) | 5.388% | - | 38.31% | 0% | -3.856%
CCc1nnc(CNC2CCN(c3ncnc4c(C)csc34)CC2)s1 | -12.72% | -13.3% | 52.55% | 2.513% | -0.6031%
Cc1cnc(C(=O)N2CCN(C(=O)C(C)C)[C@@H]3CS(=O)(=O)C[C@@H]32)cn1 | -13.58% | - | - | 2.041% | 1.576%
CCN(CC)C(=O)CNC(=O)c1cnc(-c2ccccc2)nc1 | 8.337% | 6.435% | 4.667% | -1.163% | 8.155%
Cc1ccc(N2CCc3ncnc(N(C)C)c3CC2)nn1 | -13.77% | -3.265% | 12.17% | 1.105% | 3.465%
O=C(c1ccco1)N1CCC2(CCCN(c3ncccn3)C2)C1 (stereo not drawn) | -10.93% | - | - | 5.291% | 0.2469%
O=C(CCCN1C(=O)CCC1=O)NCC1(c2ccccc2)CCC1 | -5.66% | -4.582% | 17.48% | 4.571% | 5.249%
O=C1CO[C@@H]2CN(Cc3nccs3)C[C@H]2N1Cc1ccncc1 | -0.3284% | - | - | 7.438% | 5.882%
[H][C@]12CCN(S(=O)(=O)c3ccccc3)[C@@]1([H])CC[C@H](COC)O2 | - | 6.613% | 28.71% | - | -
CC1c2ncc(COc3cccnc3)n2CCN1C(=O)Cc1ccco1 (stereo not drawn) | -4.345% | - | - | -1.639% | -2.288%
Cc1c(Cl)cccc1S(=O)(=O)N1CCC2(CC1)OCCS2 | 6.16% | 7.128% | -16.84% | 6.736% | -3.255%
O=C([C@H]1COC[C@H]2CN(CC3CCCC3)C[C@H]21)N1CCOCC1 | -1.412% | - | - | 0% | -
CCc1cnccc1C(=O)NC1CCN(C(=O)C2CCCCC2)CC1 | -1.467% | 4.348% | 12.67% | 3.96% | 2.913%
O=C(Cc1c(F)cccc1Cl)Nc1cc(N2CCCC2)ncn1 | 0.6645% | -4.893% | 16.24% | 3.704% | -1.392%
CN1CCN(Cc2ccsc2)Cc2cccnc21 | -3.97% | -23.71% | 19.08% | 10.92% | 4.26%
CC(=O)N1CCCN(CC(C)(O)c2cccc(C(F)(F)F)c2)CC1 (stereo not drawn) | -8.488% | -1.78% | 21.33% | 1.901% | -0.2635%
COc1cc(S(=O)(=O)N2CCc3cc(Br)ccc32)cc(C(=O)O)c1OC | -26.7% | 3.055% | 19.79% | -9.605% | -3.916%
O=C(COCc1nc(-c2ccncc2)no1)N1CCCCCC1 | -11.15% | 11.61% | 22.68% | 4.184% | -6.364%
Cc1ccccc1C(C)(C)CNC(=O)CCSc1nnnn1C | 4.326% | -0.3157% | -5.34% | 7.843% | -0.1626%
Cc1cnc(NCc2csc(C(C)C)n2)nc1-c1cnn(C)c1 | -11.31% | -4.866% | 6.931% | 4.478% | 3.951%
COCCCn1c(CN2CCSCC2)cnc1S(=O)(=O)C1CCCC1 | -14.66% | 9.222% | 17.55% | 0.4484% | 1.777%
O=S1(=O)C[C@@H]2[C@H](C1)N(Cc1ncc[nH]1)CCN2C/C=C/c1ccccc1 | -3.504% | - | - | 1.667% | 7.368%
[H][C@@]12CN(Cc3ccsc3)C[C@]1([H])OCCN2Cc1cnn(C)c1 | - | 5.382% | 19.97% | - | -
N#Cc1cccc(CN2CCCC2c2ccc[nH]2)c1 (stereo not drawn) | 9.67% | -6.008% | -13.49% | 14.88% | 1.34%
CC(NC(C)(C)CN)c1ccccc1 (stereo not drawn) | 0.1276% | 0% | -5.063% | 2.463% | 0.6452%
Cc1nc(C)c(C(=O)N2CCCC(C(=O)c3nccn3C)C2)s1 (stereo not drawn) | 0.3613% | 5.578% | 38.41% | -5.6% | 2.335%
CSCCCN1CCn2nc(CNC(C)=O)cc2C1 | 1.566% | 3.065% | 9.558% | 4.959% | -10.45%
CCS(=O)(=O)CC(=O)NC(c1ccccc1)C1CCCC1 (stereo not drawn) | 5.669% | -35.82% | -5.509% | 2.01% | 10.5%
COc1ccc(C)cc1-c1csc(N)c1C#N | -12.86% | 12.64% | -3.445% | -5.263% | 1.768%
Cc1cc(C)n(CC2CCCN2C(=O)c2c[nH]c3ncccc23)n1 (stereo not drawn) | -5.545% | -2.693% | -29.02% | 1.916% | 1.012%
Cc1ccc(C(CNCc2nccn2C)N2CCOCC2)s1 (stereo not drawn) | -17.98% | 2.412% | 9.065% | 3.448% | 4.365%
CC1(C)CCC(C(=O)O)c2ccccc21 (stereo not drawn) | 9.049% | 4.442% | 26.82% | 9.244% | -7.258%
COc1cccc(CCCNC(=O)N2CCC(O)(C(F)(F)F)C2)c1 (stereo not drawn) | -5.026% | 0.8269% | 27.84% | 4.433% | -1.899%
CC1(C)CN(c2cc(C3CC3)ncn2)C[C@]1(C)O | -8.126% | -13.68% | -26.03% | 4.348% | -0.8168%
CC(C)c1nc(C2CCCN2CC(=O)Nc2cccnc2)no1 (stereo not drawn) | -21.94% | -12.26% | 16.25% | 0% | 3.394%
CCn1c(C(=O)N2CCN(CC(C)O)CC2)cc2ccccc21 (stereo not drawn) | 1.005% | 3.494% | 11.16% | -0.7634% | 2.892%
CNC(=O)c1nc2c(s1)CCN(C(=O)c1cccnc1)CC2 | -9.966% | - | - | 4.865% | 2.665%
CNC(=O)c1cc(NC(=O)Nc2cnn(CC(C)C)c2)ccc1F | -13.73% | -14.18% | 45.86% | 12.06% | 5.825%
CC(=O)N1CCC(NC(=O)CN2CCCc3c(C)ccc(F)c32)CC1 | 7.829% | 14.09% | 33.81% | 11.06% | 1.942%
CN(C)CCCNCC1CCOC(C)(C)C1 (stereo not drawn) | 6.401% | 15.27% | 10.54% | 9% | -0.3953%
Cc1cccc(N2CCN(C(=O)CC3(O)CCCC3)C(C)C2)n1 (stereo not drawn) | -7.423% | 4.685% | -5.91% & 17.86% | 2.439% | 1.266%
c1ccc2c(N3CCOC(Cn4cccn4)C3)ncnc2c1 (stereo not drawn) | -12.2% | 14.98% | -0.8022% | 1.345% | 6.599%
Cc1ccc2nc(C3CCCN3C(=O)c3cc(=O)[nH]c(=O)[nH]3)[nH]c2c1 (stereo not drawn) | -6.891% | 37.62% | 24.28% | 2.232% | -0.2551%
COc1c(C2CCCN2CC(=O)Nc2cc(C)on2)c(C)nn1C (stereo not drawn) | 9.361% | 12.8% | 9.752% | 2.924% | 3.827%
CCCN(C)c1ccc(C(=O)Nc2c(C)nn(C(C)C)c2C)cc1 | -9.217% | -5.385% | 26.64% | 4.082% | 0.8485%
Cc1noc(C)c1CN1CCc2ncnc(-c3ccoc3)c2CC1 | 0.2902% | - | - | 6.349% | -2.716%
CC1(NC(=O)Cc2csc(-c3ccccc3Cl)n2)CCS(=O)(=O)C1 (stereo not drawn) | -4.482% | -1.457% | 23.42% | 7.975% | 3.201%
O=C(NCc1cncc2c1CCN(Cc1ccc(F)cc1)C2)C1CC1 | -5.666% | - | - | 3.483% | 9.627%
Cc1ccc(CN2CCOCC3(C2)CN(c2ccc(C)s2)C(=O)CO3)o1.O=C(O)C(F)(F)F (stereo not drawn) | - | 8.352% | -17.2% & -7.239% | - | -
COCC(=O)N1CCC2(CC1)COc1ccccc1S(=O)(=O)N(C)C2 | -4.442% | 10.62% | 26.66% | 9.346% | 3.704%

The last 6 entries again:

structure,ClpP1P2,Toxoplasma,Leishmania in macrophages,TcHisRS,CoaBC
CCCN(C)c1ccc(C(=O)Nc2c(C)nn(C(C)C)c2C)cc1,-9.217%,-5.385%,26.64%,4.082%,0.8485%
Cc1noc(C)c1CN1CCc2ncnc(-c3ccoc3)c2CC1,0.2902%,-,-,6.349%,-2.716%
CC1(NC(=O)Cc2csc(-c3ccccc3Cl)n2)CCS(=O)(=O)C1 (stereo not drawn),-4.482%,-1.457%,23.42%,7.975%,3.201%
O=C(NCc1cncc2c1CCN(Cc1ccc(F)cc1)C2)C1CC1,-5.666%,-,-,3.483%,9.627%
Cc1ccc(CN2CCOCC3(C2)CN(c2ccc(C)s2)C(=O)CO3)o1.O=C(O)C(F)(F)F (stereo not drawn),-,8.352%,-17.2% & -7.239%,-,-
COCC(=O)N1CCC2(CC1)COc1ccccc1S(=O)(=O)N(C)C2,-4.442%,10.62%,26.66%,9.346%,3.704%

From ChEMBL document CHEMBL3988442, “University of Dundee, Small-Polar-MMV Screening Library” (2021).